Results reported in PMC6800482.
These are yes or no findings as the source states them, for the method shown. In cells and extracts the contact can be indirect. Some results given as binding are weak or reduced against the parent protein; the word gives no strength. Where a sequence is shown, tags or fusion partners need not be part of it.

By UniProt entry, the sequences of proteins in these tests, tags left out.
UniProt P33334: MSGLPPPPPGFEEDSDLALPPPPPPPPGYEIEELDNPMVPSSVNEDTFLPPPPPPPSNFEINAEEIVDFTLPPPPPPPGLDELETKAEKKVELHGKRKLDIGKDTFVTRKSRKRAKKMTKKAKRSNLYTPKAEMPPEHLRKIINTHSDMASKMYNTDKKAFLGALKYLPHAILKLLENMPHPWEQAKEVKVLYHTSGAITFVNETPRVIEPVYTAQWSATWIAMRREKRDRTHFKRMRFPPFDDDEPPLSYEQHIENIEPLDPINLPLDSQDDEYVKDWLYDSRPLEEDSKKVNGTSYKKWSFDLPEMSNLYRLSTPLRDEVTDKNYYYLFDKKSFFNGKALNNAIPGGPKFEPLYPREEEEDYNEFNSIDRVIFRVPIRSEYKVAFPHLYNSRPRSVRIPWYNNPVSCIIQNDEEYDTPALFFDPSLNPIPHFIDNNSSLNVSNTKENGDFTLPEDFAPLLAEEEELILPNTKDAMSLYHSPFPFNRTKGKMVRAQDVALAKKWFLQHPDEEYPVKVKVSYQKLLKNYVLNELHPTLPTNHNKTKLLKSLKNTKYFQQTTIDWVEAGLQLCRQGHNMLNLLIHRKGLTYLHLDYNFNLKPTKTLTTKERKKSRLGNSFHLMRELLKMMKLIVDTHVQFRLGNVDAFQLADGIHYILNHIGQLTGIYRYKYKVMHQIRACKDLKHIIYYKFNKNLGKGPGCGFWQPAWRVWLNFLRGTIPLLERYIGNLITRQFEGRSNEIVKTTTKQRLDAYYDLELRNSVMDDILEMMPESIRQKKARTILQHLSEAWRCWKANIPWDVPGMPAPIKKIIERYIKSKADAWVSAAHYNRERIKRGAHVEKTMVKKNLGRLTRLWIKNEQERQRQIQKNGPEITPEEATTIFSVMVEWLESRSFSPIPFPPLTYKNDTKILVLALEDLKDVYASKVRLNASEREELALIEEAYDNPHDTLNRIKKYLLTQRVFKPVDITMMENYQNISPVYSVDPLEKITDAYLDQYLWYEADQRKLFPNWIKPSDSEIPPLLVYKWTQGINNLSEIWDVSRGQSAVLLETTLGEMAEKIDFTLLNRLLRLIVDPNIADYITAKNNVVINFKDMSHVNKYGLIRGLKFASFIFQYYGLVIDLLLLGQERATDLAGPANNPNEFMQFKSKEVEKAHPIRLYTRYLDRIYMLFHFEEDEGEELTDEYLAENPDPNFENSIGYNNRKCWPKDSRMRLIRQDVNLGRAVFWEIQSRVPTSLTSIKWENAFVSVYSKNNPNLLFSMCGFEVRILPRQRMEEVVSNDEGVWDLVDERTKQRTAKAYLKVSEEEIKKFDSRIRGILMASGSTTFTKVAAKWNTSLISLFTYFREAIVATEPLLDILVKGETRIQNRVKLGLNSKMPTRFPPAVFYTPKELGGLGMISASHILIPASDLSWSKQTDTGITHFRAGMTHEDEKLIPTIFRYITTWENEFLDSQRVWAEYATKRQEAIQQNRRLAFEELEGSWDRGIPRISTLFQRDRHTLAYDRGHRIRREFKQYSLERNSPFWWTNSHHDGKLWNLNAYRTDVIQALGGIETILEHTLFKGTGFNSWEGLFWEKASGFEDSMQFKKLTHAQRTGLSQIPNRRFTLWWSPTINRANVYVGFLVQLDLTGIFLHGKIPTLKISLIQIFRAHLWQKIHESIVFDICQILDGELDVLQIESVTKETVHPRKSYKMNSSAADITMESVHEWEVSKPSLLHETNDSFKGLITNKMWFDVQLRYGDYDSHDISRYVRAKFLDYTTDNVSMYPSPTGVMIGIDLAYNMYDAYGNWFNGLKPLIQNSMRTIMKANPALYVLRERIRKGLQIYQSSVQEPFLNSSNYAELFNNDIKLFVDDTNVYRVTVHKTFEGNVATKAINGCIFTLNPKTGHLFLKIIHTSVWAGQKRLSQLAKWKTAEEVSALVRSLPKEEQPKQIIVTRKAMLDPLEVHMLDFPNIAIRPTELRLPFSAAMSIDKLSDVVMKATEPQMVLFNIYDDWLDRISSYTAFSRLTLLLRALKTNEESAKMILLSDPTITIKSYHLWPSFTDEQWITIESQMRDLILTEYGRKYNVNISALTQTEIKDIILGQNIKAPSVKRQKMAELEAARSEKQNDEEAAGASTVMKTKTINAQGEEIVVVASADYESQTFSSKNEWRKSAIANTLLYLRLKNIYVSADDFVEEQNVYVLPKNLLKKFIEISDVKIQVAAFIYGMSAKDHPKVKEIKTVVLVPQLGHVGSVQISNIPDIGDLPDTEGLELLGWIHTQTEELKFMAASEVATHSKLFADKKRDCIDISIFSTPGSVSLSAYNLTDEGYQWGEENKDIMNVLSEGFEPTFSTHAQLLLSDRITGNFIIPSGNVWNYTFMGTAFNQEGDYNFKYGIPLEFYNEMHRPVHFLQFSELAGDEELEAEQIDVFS

Molecular target: T1, Spt5-AID*-6Flag (S. cerevisiae) (UniProt P27692)
T1 sequence: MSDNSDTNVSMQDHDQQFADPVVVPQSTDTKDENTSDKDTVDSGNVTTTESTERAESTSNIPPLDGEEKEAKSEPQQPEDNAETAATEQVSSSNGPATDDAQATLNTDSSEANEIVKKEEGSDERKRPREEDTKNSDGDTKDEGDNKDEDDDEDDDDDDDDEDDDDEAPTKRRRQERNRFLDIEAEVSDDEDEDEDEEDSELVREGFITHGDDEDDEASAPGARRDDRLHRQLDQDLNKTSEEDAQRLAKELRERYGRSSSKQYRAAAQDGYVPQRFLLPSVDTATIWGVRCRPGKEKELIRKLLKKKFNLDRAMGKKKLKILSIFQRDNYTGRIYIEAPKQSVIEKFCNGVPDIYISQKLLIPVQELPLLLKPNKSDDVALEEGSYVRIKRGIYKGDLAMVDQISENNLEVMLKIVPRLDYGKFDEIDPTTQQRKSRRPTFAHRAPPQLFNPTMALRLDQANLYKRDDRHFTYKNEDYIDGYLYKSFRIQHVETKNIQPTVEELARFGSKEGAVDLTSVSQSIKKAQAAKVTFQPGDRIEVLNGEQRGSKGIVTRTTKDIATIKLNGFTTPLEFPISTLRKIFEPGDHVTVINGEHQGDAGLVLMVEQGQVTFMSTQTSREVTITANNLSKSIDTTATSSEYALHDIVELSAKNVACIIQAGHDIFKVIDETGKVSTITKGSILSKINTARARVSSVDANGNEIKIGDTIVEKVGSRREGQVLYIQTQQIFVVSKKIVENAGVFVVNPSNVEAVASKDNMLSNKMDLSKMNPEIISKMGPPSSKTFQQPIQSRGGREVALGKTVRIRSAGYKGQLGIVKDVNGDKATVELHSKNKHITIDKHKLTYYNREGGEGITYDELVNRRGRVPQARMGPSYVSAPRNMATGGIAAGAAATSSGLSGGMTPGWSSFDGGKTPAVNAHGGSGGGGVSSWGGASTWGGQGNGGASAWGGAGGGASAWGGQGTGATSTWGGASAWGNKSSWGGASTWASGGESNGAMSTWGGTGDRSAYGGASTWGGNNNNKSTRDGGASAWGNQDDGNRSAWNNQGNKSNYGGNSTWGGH
Experiment: co-IP; Spt5-AID*-6Flag pulled down with anti-Flag antibody on Protein A/G Dynabeads from 1 mg of yeast lysate protein, 1 h at room temperature; lysis buffer 50 mM Tris-HCl pH 7.5, 150 mM NaCl, 0.2% NP-40; with or without RNase A (100 µg/mL); blots probed with anti-Prp40, anti-HA and anti-Prp8

binding: binds
Substance: Prp8 (from UniProt P33334 1-2413)
